The record followed here is US8841077B2, “Biomarkers for amyotrophic lateral sclerosis and methods using the same” (Massachusetts General Hospital, priority 2006, dated 2014).

A short description of this data set: Metabolomic profiling (GC-MS/LC-MS) of CSF samples, ALS subjects vs control subjects (Example 1; Tables 3, 4). The data set is classed as in vivo, human.
Setting [1] is: CSF, ALS mean as compared to control mean, T-tests of ALS vs. Controls.
[2] abbreviates: CSF, ALS mean as compared to the control mean.
Where [3] appears, read: CSF, mean in ALS samples as compared to control samples.
Setting [4] is: CSF, mean in ALS samples vs control samples, T-tests.

In the case of `O=C(O)CC(O)C(=O)O` (centres unmarked) [Malic acid - 35, Malic acid], the “% change in ALS” value is, setting by setting: under setting [1], −12%; under setting [2], −12%. Further, the “Increase (+) or Decrease (−) in ALS” value is recorded as “−” under setting [3] and “−” under setting [4].
On to `O=C(O)C(=O)CS` [Mercaptopyruvate - 35, Mercaptopyruvate], for which the “% change in ALS” value runs as follows: under setting [1], −7%; under setting [2], −7%. The “Increase (+) or Decrease (−) in ALS” value is given as “−” under setting [3] and “−” under setting [4].
For the compound `C[N+](C)(C)CC(O)CC(=O)[O-]` (centres unmarked) [Metabolite - 1336 retired: carnitine - 35], the “% change in ALS” value under setting [2] is given as 55%. Besides, the “Increase (+) or Decrease (−) in ALS” value under setting [3] is listed as “+”.
As for `O=C(O)C(O)Cc1ccc(O)cc1` (centres unmarked) [Metabolite - 1343 retired: p-hydroxyphenyllactic acid - 35], the “% change in ALS” value reads like this: under setting [1], −21%; under setting [2], −21%. The “Increase (+) or Decrease (−) in ALS” value was “−” under setting [3] and “−” under setting [4].
`N=C(N)NCCCC(=O)O` [Metabolite - 1842 retired: 4-Guanidinobutanoic acid - 35]: the “Increase (+) or Decrease (−) in ALS” value runs as follows: under setting [3], “+”; under setting [4], “+”.
`Oc1nc(O)c2nc(O)[nH]c2n1` [Metabolite - 1910 retired: uric acid - 35]: the “% change in ALS” value under setting [2] is 22%. The “Increase (+) or Decrease (−) in ALS” value under setting [3] is on record as “+”.
In the same order, the values of `CC(O)C(=O)O` (centres unmarked) [Metabolite - 2563 retired: lactate - 35] are 18% and “+”.
The matching figures for `CC(O)C(=O)O` (centres unmarked) [Metabolite - 2694 retired: lactate - 35]: 14% and “+”.
In the same order, the values of `CC(O)C(=O)O` (centres unmarked) [Metabolite - 3316 retired: lactate - 35] are 17% and “+”.
Turning to `CSCC[C@H](N)C(=O)O` [Methionine - 35, Methionine], the “% change in ALS” value under setting [1] turned out to be 21% and the “% change in ALS” value under setting [2] was found to be 21%. Moreover, the “Increase (+) or Decrease (−) in ALS” value is recorded as “+” under setting [3] and “+” under setting [4].
On to `NCCO` [Monoethanolamine - 9], for which the “% change in ALS” value under setting [2] is listed as −7%. Also, the “Increase (+) or Decrease (−) in ALS” value under setting [3] is reported as “−”.
Consider `CN(C)[C@@H](CCCNC(=N)N)C(=O)O` [N,N-dimethylarginine], for which, under setting [1], the “% change in ALS” value is given as 24%. Under setting [4], the “Increase (+) or Decrease (−) in ALS” value is “+”.
With `C[N+](C)(C)CCCC[C@H](N)C(=O)[O-]` [N-6-trimethyl-l-lysine - 35, N-6-trimethyl-l-lysine], the “% change in ALS” value runs as follows: under setting [1], 10%; under setting [2], 10%. Further, the “Increase (+) or Decrease (−) in ALS” value reads like this: under setting [3], “+”; under setting [4], “+”.
Take `CC(=O)N[C@@H](CCC(N)=O)C(=O)O` [N-Acetylglutamine - 9, N-Acetylglutamine]: the “% change in ALS” value is listed as 37% under setting [1] and 37% under setting [2]. The “Increase (+) or Decrease (−) in ALS” value is reported as “+” under setting [3] and “+” under setting [4].
As for `CC(=O)N[C@@H](C)C(=O)O` [N-acetyl-L-alanine - 35, N-acetyl-L-alanine], the “% change in ALS” value by setting is: under setting [1], −12%; under setting [2], −12%. For the same compound, the “Increase (+) or Decrease (−) in ALS” value is listed as “−” under setting [3] and “−” under setting [4].
For the compound `CC(=O)N[C@H](C(=O)O)C(C)C` [N-acetyl-L-valine - 35, N-acetyl-L-valine], the “% change in ALS” value was determined as 4% under setting [1] and 4% under setting [2]. The “Increase (+) or Decrease (−) in ALS” value is, setting by setting: under setting [3], “+”; under setting [4], “+”.
In the case of `NC(=O)N[C@@H](CC(=O)O)C(=O)O` [N-carbamoyl-L-aspartate - 35, N-carbamoyl-L-aspartate], the “% change in ALS” value reads like this: under setting [1], 13%; under setting [2], 13%. The “Increase (+) or Decrease (−) in ALS” value is, setting by setting: under setting [3], “+”; under setting [4], “+”.
For `CCCCCCCCCCCCCCCCCC(=O)O` [Octadecanoic acid - 9, Octadecanoic acid], the “% change in ALS” value is given as −5% under setting [1] and −5% under setting [2]. The “Increase (+) or Decrease (−) in ALS” value under setting [3] is “−” and the “Increase (+) or Decrease (−) in ALS” value under setting [4] was “−”.
Turning to `CCCCCC/C=C\CCCCCCCC(=O)O` [Palmitoleic acid - 9, Palmitoleic acid], the “% change in ALS” value is −15% under setting [1] and −15% under setting [2]. Also, the “Increase (+) or Decrease (−) in ALS” value is “−” under setting [3] and “−” under setting [4].
`CC(C)(CO)[C@@H](O)C(=O)NCCC(=O)O` [Pantothenic acid - 35, Pantothenic acid]: the “% change in ALS” value is on record as 27% under setting [1] and 27% under setting [2]. For the same compound, the “Increase (+) or Decrease (−) in ALS” value by setting is: under setting [3], “+”; under setting [4], “+”.
Turning to `O=C(O)CCCC(=O)O` [Pentanedicic acid - 9, Pentanedicic acid], under setting [1], the “% change in ALS” value is reported as 1%. In addition, the “Increase (+) or Decrease (−) in ALS” value under setting [4] is recorded as “+”.
On to `O=C(O)CCCC(=O)O` [Pentanedioic acid - 9], for which the “% change in ALS” value under setting [2] is listed as 1%. The “Increase (+) or Decrease (−) in ALS” value under setting [3] is listed as “+”.
On to `N[C@@H](Cc1ccccc1)C(=O)O` [Phenylalanine - 35, Phenylalanine], for which the “% change in ALS” value under setting [1] came out at 12% and the “% change in ALS” value under setting [2] is 12%. The “Increase (+) or Decrease (−) in ALS” value under setting [3] is “+” and the “Increase (+) or Decrease (−) in ALS” value under setting [4] is given as “+”.
Regarding `O=P(O)(O)O` [Phosphate - 9, Phosphate], the “% change in ALS” value is −7% under setting [1] and −7% under setting [2]. Moreover, the “Increase (+) or Decrease (−) in ALS” value is, setting by setting: under setting [3], “−”; under setting [4], “−”.
`C=C(OP(=O)(O)O)C(=O)O` [Phosphoenolpyruvate - 35, Phosphoenolpyruvate]: the “% change in ALS” value under setting [1] is given as −2% and the “% change in ALS” value under setting [2] is given as −2%. Moreover, the “Increase (+) or Decrease (−) in ALS” value under setting [3] is “−” and the “Increase (+) or Decrease (−) in ALS” value under setting [4] was “−”.
With `O=C(O)[C@@H]1CCCN1` [Praline - 35, Praline], the “% change in ALS” value runs as follows: under setting [1], 156%; under setting [2], 156%. Further, the “Increase (+) or Decrease (−) in ALS” value by setting is: under setting [3], “+”; under setting [4], “+”.
As for `Cc1ncc(CO)c(CN)c1O` [Pyridoxamine - 35, Pyridoxamine], the “% change in ALS” value by setting is: under setting [1], 10%; under setting [2], 10%. Further, the “Increase (+) or Decrease (−) in ALS” value was “+” under setting [3] and “+” under setting [4].
With `N[C@@H](CCCCN[C@@H](CCC(=O)O)C(=O)O)C(=O)O` [Saccharopine - 35, Saccharopine], the “% change in ALS” value reads like this: under setting [1], −1%; under setting [2], −1%. The “Increase (+) or Decrease (−) in ALS” value is “−” under setting [3] and “−” under setting [4].
Regarding `CNCC(=O)O` [Sarcosine - 9, Sarcosine], the “% change in ALS” value reads like this: under setting [1], −4%; under setting [2], −4%. The “Increase (+) or Decrease (−) in ALS” value reads like this: under setting [3], “−”; under setting [4], “−”.
On to `N[C@@H](C[Se][Se]C[C@H](N)C(=O)O)C(=O)O` [Selenocystine - 35, Selenocystine], for which the “% change in ALS” value is 7% under setting [1] and 7% under setting [2]. Further, the “Increase (+) or Decrease (−) in ALS” value by setting is: under setting [3], “+”; under setting [4], “+”.
For the compound `N[C@@H](CO)C(=O)O` [Serine - 9, Serine], the “% change in ALS” value by setting is: under setting [1], −11%; under setting [2], −11%. Also, the “Increase (+) or Decrease (−) in ALS” value under setting [3] is listed as “−” and the “Increase (+) or Decrease (−) in ALS” value under setting [4] is “−”.
Regarding `CCCCCCCCCCCCCC(=O)O` [Tetradecanoic acid - 9, Tetradecanoic acid], the “% change in ALS” value amounted to 14% under setting [1] and 14% under setting [2]. The “Increase (+) or Decrease (−) in ALS” value is reported as “+” under setting [3] and “+” under setting [4].
Take `O=C1COC(=O)C1` [Tetronic acid - 9, Tetronic acid]: the “% change in ALS” value is, setting by setting: under setting [1], −3%; under setting [2], −3%. Further, the “Increase (+) or Decrease (−) in ALS” value under setting [3] is given as “−” and the “Increase (+) or Decrease (−) in ALS” value under setting [4] is listed as “−”.
Turning to `C[C@@H](O)[C@H](N)C(=O)O` [Threonine - 9, Threonine], the “% change in ALS” value is, setting by setting: under setting [1], −3%; under setting [2], −3%. Moreover, the “Increase (+) or Decrease (−) in ALS” value by setting is: under setting [3], “−”; under setting [4], “−”.
Turning to `N[C@@H](Cc1c[nH]c2ccccc12)C(=O)O` [Tryptophan - 35, Tryptophan], where the note is “human, in vivo”, the “% change in ALS” value was 15% and the “Increase (+) or Decrease (−) in ALS” value was “+”.
Take `N[C@@H](Cc1ccc(O)cc1)C(=O)O` [Tyrosine - 35, Tyrosine]: the “% change in ALS” value came to 19% under setting [1] and 19% under setting [2]. For the same compound, the “Increase (+) or Decrease (−) in ALS” value by setting is: under setting [3], “+”; under setting [4], “+”.
For `O=c1[nH]c(=O)c2[nH]c(=O)[nH]c2[nH]1` [Uric acid - 35, Uric acid], the “% change in ALS” value under setting [1] is on record as 22% and the “% change in ALS” value under setting [2] is 22%. For the same compound, the “Increase (+) or Decrease (−) in ALS” value by setting is: under setting [3], “+”; under setting [4], “+”.
Consider `O=c1ccn([C@@H]2O[C@H](CO)[C@@H](O)[C@H]2O)c(=O)[nH]1` [Uridine - 35, Uridine], for which the “% change in ALS” value under setting [1] was −7% and the “% change in ALS” value under setting [2] is −7%. Further, the “Increase (+) or Decrease (−) in ALS” value runs as follows: under setting [3], “−”; under setting [4], “−”.
As for `CC(C)[C@H](N)C(=O)O` [Valine - 9, Valine], the “% change in ALS” value reads like this: under setting [1], 34%; under setting [2], 34%. The “Increase (+) or Decrease (−) in ALS” value is, setting by setting: under setting [3], “+”; under setting [4], “+”.
